# Publication PMC7819943, “Rice protein-binding microarrays: a tool to detect cis-acting elements near promoter regions in rice”
# Chains of the proteins cited; added tags and fusions are not shown.
# UniProt Q0JBA9, entry or part of it: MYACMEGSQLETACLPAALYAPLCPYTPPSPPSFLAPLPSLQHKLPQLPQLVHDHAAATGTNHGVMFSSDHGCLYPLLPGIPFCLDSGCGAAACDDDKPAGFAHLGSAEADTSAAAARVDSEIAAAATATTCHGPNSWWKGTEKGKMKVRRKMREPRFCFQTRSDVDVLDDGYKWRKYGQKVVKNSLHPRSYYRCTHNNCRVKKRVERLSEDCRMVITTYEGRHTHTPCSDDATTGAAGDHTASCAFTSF
# The other results are listed elsewhere or left out.
# Biological target: OsWRKY34 (Oryza sativa, UniProt Q0JBA9 1-250)
# Test: protein-binding microarray (RPBM); PBS, 2% BSA, 51.3 ng/ul salmon testes DNA, 50 uM zinc acetate, 200 nM TF, 25 C, 1 h; high values mean tight binding
# Conditions: protein: recombinant; tags: N-terminal polyhistidine and DsRed monomer fusion (pET32a); label: CyDye5-dUTP incorporated in the synthesized complementary strand; 3' TTTTT single-stranded linker to array surface; dsDNA, one strand shown
# In short: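 For the binding signal, per-feature fluorescence intensity was read in arbitrary units on an Axon 4000B scanner. Before scanning, a 2% BSA-blocked custom Agilent array made double-stranded with Cy5-dUTP was washed after 1 h at 25 °C with 200 nM protein and 50 µM zinc acetate. The proteins were Ni–NTA-purified transcription factors with N-terminal polyhistidine and DsRed fusions, expressed in E. coli BL21-CodonPlus.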
row,Sequence,binding signal
1,GGGAGGGGAGCGGCTGCGCACGCCGGCGAGCGCTGTGAATCGGAGTCACCTAGTGCAG,9750 fluorescence intensity (a.u.)
2,CACACTACTACTACTGTCTACTGCCACGCCGCCGTAACCACGGAGTCACCTAGTGCAG,8190 fluorescence intensity (a.u.)
3,ACACGTCATGCTTCTCCTCTCTCTCTTTGTCCTTGCATAGCGGAGTCACCTAGTGCAG,10800 fluorescence intensity (a.u.)
4,ATTAATTAGGGGTATTTTGGTTCTTTTATATTCACCTCGACGGAGTCACCTAGTGCAG,9260 fluorescence intensity (a.u.)
5,TATTGGTTTTTTCTGAGCGCCCATGACGACCGGAACACGTCGGAGTCACCTAGTGCAG,8160 fluorescence intensity (a.u.)
6,GAGCAGCATAAAATCCACCTCTCCGATGTCACTGCTTTCCCGGAGTCACCTAGTGCAG,8020 fluorescence intensity (a.u.)
7,AGATTCCGCTTCCATTTCCACCAACCGCGCAAGATACAGGCGGAGTCACCTAGTGCAG,8150 fluorescence intensity (a.u.)
8,AACGAGACAAACGACAGCACGCTTCCTCTTCTGCACCTACCGGAGTCACCTAGTGCAG,8870 fluorescence intensity (a.u.)
9,GGCTATCGTATACACTTGCAAGTACATAATTTATTTTTATCGGAGTCACCTAGTGCAG,8340 fluorescence intensity (a.u.)
10,ACCTTATCATCTCTCCATTCGCCATCGAGCCCGCCGGAGGCGGAGTCACCTAGTGCAG,8070 fluorescence intensity (a.u.)
11,CTAAAGTTAAGTCACTGATGTAAACACCACCTTTGTCTCTCGGAGTCACCTAGTGCAG,8570 fluorescence intensity (a.u.)
12,GAACATCGCGACCGTCCGTGTCTTGATCGGACGTTTCAGACGGAGTCACCTAGTGCAG,9620 fluorescence intensity (a.u.)
13,CAGCCATCGCCTCCCCGACTCCCGTCGTTGTCCACCCCGTCGGAGTCACCTAGTGCAG,8260 fluorescence intensity (a.u.)
14,CTGCTAATCACGTTTTAGTTCGAATTAATGCCATCCACTCCGGAGTCACCTAGTGCAG,8030 fluorescence intensity (a.u.)
15,CACCGTTGTTTGCATACTCCCACTGTCCCACATCTCATCGCGGAGTCACCTAGTGCAG,14200 fluorescence intensity (a.u.)
16,AACTTTATTTACGCGGTTCAATTCTTCGATCGCAAGGTATCGGAGTCACCTAGTGCAG,9200 fluorescence intensity (a.u.)
17,ACAGCTCTGCTCAACCTTGCCATCTCGATCAATCGATCCTCGGAGTCACCTAGTGCAG,11400 fluorescence intensity (a.u.)
18,AAACACACATGTTCTTTTGTTTTTTTTGTATGGGGACAAACGGAGTCACCTAGTGCAG,8170 fluorescence intensity (a.u.)
19,TGGCAAGAGGATATTTTATGGATTTCTTTGTTGATTTTATCGGAGTCACCTAGTGCAG,8660 fluorescence intensity (a.u.)
20,ACCAAACCCACGGCCTGGCCCACTGTCAGTACTAAGATAGCGGAGTCACCTAGTGCAG,9120 fluorescence intensity (a.u.)
21,CGCCGCCTTTTGTCTCCTTTTCCGGTTCTCTCCTCTGTCGCGGAGTCACCTAGTGCAG,9720 fluorescence intensity (a.u.)

row,Sequence,binding signal
1,GCCCCTCGCTTTTGATTAGTTACGTGCCGGTCCCCACTACCGGAGTCACCTAGTGCAG,9890 fluorescence intensity (a.u.)
2,TGTTCTTATCCAGTTGACTTTGTGTTTTTCGCCAACGAGGCGGAGTCACCTAGTGCAG,8500 fluorescence intensity (a.u.)
3,GGTGGAGGAGGTGGGCGGGGAAAGCGGCGACGTGAGGCGGCGGAGTCACCTAGTGCAG,14400 fluorescence intensity (a.u.)
4,GCGAATCATAACGACTACACGTTTCACAATTGGATCATTTCGGAGTCACCTAGTGCAG,15000 fluorescence intensity (a.u.)
5,CGGCCCCTCACACCACCACCTCCGCTCCAGCGCGCACACTCGGAGTCACCTAGTGCAG,9990 fluorescence intensity (a.u.)
6,CTCCGGCGCTCCACATCCCTCCACCGATTCTTCTGGTGACCGGAGTCACCTAGTGCAG,8400 fluorescence intensity (a.u.)
7,CCTTTTTCAGTTATGGTTTCCCTCAGGCTGGCAGTTGTGTCGGAGTCACCTAGTGCAG,8160 fluorescence intensity (a.u.)
8,CTCCTACTACCCAATACGACTACTACTAGTTTTCTTTCTTCGGAGTCACCTAGTGCAG,9470 fluorescence intensity (a.u.)
9,CTGCTTTTCATAGATTGAATGTTGCATACTGTATATGGGGCGGAGTCACCTAGTGCAG,8920 fluorescence intensity (a.u.)
10,GCTGCTTGTCTTCCACTTCTCTTCTGGAATGCATGTGATTCGGAGTCACCTAGTGCAG,8670 fluorescence intensity (a.u.)
11,AAATGAATGGATGGTGAAGTTTTTGTTCTTTGTATTTGAACGGAGTCACCTAGTGCAG,8840 fluorescence intensity (a.u.)
12,GCCTACTTAAATTACATTTCCGCACCCACACCACACACACCGGAGTCACCTAGTGCAG,11400 fluorescence intensity (a.u.)
13,CCGCTGCCTCCGCTCCGCCGCCATGCTCGCCCACTGTCTGCGGAGTCACCTAGTGCAG,9850 fluorescence intensity (a.u.)
14,GGTGGAGACGGGGTGGAGGAAGGCGACGAGGAGGTGCAGGCGGAGTCACCTAGTGCAG,8240 fluorescence intensity (a.u.)
15,CCTTCTCGGGCTTTGTTGTACGTATGCGTCTCGTGTTGGGCGGAGTCACCTAGTGCAG,8780 fluorescence intensity (a.u.)
16,TCCTACCTCCACTTCTTCTTTCTTCCACAAAGCCCATTCCCGGAGTCACCTAGTGCAG,8090 fluorescence intensity (a.u.)
17,TCTACTGTTATCCTTGCTATCGCGGTCTTTTACCCTCATGCGGAGTCACCTAGTGCAG,8500 fluorescence intensity (a.u.)
18,CCCTGTGCTTGTTGTTCATAGCAACTTCAATTCGATCACACGGAGTCACCTAGTGCAG,8310 fluorescence intensity (a.u.)
19,TTTTAGTTGTTGATTTCTTGATTAAATTTGTTAGTTTAACCGGAGTCACCTAGTGCAG,8460 fluorescence intensity (a.u.)
20,TGCAGTATCTGCCGTTCGTATCGCTGCGTTGAATCTTCCACGGAGTCACCTAGTGCAG,9720 fluorescence intensity (a.u.)
21,CGCTCGATTAGTGATTACCCGCTCAAACTCCCGCAACGTTCGGAGTCACCTAGTGCAG,9830 fluorescence intensity (a.u.)

# In another format: entries from further up
row | Sequence | binding signal
18 | CCCTGTGCTTGTTGTTCATAGCAACTTCAATTCGATCACACGGAGTCACCTAGTGCAG | 8310 fluorescence intensity (a.u.)
19 | TTTTAGTTGTTGATTTCTTGATTAAATTTGTTAGTTTAACCGGAGTCACCTAGTGCAG | 8460 fluorescence intensity (a.u.)
20 | TGCAGTATCTGCCGTTCGTATCGCTGCGTTGAATCTTCCACGGAGTCACCTAGTGCAG | 9720 fluorescence intensity (a.u.)
21 | CGCTCGATTAGTGATTACCCGCTCAAACTCCCGCAACGTTCGGAGTCACCTAGTGCAG | 9830 fluorescence intensity (a.u.)
